From the supplement of paper PMC10849652
The list shows a part of the results.

By UniProt entry, the sequences of proteins in these tests, tags left out. Where a name states a change or a piece, a line headed by the entry shows the natural chain unless it says otherwise.
UniProt O94782: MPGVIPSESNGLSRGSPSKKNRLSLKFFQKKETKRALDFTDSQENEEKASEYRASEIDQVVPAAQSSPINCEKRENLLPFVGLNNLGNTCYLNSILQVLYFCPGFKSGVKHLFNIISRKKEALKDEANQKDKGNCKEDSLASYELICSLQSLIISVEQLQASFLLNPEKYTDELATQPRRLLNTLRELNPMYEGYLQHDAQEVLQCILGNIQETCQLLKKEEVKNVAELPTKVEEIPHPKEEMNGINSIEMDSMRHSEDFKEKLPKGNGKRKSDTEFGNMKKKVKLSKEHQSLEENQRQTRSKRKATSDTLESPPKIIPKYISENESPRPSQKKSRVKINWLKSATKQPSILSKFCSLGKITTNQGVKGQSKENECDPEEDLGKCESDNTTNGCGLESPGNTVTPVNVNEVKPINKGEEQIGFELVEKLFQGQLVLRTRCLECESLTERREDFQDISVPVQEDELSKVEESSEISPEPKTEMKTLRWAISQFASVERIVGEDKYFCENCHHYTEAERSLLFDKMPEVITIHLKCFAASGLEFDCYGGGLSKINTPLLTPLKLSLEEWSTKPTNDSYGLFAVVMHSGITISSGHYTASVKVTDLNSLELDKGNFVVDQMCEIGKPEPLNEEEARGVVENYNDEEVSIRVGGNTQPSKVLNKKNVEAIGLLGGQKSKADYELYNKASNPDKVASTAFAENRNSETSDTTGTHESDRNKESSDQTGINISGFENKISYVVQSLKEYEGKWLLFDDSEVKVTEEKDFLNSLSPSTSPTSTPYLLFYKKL
UniProt P31930: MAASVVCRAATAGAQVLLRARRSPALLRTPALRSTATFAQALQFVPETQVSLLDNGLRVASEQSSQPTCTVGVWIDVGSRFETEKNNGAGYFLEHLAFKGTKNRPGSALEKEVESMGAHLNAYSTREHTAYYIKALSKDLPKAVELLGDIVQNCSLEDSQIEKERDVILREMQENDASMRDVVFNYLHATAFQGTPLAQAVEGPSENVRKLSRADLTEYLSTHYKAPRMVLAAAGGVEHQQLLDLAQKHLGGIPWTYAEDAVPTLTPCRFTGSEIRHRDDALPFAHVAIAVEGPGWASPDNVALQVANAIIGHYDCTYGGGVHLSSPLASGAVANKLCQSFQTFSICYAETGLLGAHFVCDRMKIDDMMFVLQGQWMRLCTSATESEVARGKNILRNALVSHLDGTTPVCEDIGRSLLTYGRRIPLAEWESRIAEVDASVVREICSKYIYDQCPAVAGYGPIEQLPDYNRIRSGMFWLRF
UniProt Q969X6: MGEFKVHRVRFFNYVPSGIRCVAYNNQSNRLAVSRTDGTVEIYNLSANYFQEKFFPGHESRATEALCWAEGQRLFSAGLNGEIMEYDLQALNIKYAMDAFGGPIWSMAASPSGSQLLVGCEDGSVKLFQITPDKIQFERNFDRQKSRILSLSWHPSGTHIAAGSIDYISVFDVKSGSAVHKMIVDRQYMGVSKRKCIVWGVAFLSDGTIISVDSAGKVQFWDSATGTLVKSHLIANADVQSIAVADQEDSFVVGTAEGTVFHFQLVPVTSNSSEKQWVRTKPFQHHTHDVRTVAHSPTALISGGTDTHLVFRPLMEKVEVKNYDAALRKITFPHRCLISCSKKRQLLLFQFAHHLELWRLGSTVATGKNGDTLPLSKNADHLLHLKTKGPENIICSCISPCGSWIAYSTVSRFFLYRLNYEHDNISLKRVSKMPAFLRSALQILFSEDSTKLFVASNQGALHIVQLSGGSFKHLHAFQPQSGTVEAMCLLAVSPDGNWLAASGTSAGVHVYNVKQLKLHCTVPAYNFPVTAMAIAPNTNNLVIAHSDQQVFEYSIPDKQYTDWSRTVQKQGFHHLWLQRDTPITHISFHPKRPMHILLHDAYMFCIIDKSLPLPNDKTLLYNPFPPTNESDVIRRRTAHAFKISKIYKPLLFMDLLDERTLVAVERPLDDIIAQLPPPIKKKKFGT
UniProt Q9UMX0, whole entry, looked up: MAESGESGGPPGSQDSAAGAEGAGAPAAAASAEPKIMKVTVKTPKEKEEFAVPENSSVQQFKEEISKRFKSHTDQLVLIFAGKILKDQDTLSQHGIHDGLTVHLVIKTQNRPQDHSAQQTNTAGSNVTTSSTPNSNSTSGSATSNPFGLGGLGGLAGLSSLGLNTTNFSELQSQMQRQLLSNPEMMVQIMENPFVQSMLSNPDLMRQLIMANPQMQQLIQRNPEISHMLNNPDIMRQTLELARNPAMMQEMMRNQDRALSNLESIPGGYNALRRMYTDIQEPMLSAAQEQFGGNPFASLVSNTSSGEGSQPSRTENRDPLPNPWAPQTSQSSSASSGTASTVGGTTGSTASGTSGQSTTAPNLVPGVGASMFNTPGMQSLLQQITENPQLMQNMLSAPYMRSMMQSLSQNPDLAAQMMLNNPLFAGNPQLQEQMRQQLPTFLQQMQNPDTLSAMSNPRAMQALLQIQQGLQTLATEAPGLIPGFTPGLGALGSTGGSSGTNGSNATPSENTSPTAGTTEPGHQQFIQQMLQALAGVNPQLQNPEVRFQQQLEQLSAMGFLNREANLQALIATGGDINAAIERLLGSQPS
UniProt P51809, whole entry, looked up: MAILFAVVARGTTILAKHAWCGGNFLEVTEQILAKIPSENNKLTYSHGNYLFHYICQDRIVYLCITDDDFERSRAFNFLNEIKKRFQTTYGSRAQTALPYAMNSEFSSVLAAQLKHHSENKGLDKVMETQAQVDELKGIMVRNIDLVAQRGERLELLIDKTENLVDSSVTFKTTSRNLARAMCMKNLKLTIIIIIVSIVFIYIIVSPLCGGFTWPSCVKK
UniProt Q92995: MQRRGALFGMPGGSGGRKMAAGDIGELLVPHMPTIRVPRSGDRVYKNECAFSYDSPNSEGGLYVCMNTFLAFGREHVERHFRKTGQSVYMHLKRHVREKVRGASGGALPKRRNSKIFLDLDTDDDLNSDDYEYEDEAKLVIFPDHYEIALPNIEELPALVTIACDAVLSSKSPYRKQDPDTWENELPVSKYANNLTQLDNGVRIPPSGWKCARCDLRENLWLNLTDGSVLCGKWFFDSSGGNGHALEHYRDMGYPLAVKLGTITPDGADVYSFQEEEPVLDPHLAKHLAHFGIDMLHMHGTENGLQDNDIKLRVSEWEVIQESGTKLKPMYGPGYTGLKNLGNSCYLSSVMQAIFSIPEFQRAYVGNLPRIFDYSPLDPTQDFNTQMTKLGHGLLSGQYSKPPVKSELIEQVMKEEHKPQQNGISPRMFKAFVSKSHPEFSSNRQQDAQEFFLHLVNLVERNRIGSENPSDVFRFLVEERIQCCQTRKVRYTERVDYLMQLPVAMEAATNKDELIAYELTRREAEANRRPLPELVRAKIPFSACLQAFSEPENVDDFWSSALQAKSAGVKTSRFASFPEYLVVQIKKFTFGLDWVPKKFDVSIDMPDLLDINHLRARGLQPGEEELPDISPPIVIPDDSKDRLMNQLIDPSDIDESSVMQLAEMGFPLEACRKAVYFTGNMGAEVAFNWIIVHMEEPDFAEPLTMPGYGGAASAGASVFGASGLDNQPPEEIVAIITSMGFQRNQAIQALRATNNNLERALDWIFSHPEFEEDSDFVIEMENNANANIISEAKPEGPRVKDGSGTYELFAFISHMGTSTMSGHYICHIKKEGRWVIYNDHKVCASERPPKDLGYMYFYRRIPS
UniProt Q9UHD9, whole entry, looked up: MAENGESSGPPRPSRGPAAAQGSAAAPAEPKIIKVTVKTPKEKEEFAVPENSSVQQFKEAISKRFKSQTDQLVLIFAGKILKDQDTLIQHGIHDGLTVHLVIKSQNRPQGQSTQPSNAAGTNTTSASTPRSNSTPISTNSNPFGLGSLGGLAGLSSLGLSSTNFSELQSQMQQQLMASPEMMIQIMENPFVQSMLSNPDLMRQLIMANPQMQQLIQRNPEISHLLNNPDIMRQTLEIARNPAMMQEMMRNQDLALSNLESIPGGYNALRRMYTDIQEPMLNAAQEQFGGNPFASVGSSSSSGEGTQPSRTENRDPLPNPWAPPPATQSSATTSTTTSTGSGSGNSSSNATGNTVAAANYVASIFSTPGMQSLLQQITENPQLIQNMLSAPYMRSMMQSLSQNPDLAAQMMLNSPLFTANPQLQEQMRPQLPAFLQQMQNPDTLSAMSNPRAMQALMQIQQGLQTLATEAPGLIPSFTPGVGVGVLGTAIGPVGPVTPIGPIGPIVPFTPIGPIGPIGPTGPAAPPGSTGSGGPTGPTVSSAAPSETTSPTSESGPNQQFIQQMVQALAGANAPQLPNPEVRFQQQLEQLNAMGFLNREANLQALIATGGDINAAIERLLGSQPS
UniProt Q92575: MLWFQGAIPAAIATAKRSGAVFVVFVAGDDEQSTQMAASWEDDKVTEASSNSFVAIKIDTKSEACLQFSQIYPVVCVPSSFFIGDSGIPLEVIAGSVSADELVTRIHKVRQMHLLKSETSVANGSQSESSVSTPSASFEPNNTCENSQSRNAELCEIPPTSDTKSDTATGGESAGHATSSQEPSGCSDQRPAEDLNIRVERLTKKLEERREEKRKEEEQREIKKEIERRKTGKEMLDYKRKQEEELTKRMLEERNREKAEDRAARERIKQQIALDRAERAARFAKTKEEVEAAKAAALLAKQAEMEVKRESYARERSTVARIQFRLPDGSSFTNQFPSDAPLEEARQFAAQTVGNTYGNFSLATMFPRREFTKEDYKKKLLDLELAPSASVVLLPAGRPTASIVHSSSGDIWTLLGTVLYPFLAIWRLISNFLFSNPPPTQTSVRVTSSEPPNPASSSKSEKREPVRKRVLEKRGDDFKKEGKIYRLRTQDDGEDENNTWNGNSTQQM
UniProt O94763, whole entry, looked up: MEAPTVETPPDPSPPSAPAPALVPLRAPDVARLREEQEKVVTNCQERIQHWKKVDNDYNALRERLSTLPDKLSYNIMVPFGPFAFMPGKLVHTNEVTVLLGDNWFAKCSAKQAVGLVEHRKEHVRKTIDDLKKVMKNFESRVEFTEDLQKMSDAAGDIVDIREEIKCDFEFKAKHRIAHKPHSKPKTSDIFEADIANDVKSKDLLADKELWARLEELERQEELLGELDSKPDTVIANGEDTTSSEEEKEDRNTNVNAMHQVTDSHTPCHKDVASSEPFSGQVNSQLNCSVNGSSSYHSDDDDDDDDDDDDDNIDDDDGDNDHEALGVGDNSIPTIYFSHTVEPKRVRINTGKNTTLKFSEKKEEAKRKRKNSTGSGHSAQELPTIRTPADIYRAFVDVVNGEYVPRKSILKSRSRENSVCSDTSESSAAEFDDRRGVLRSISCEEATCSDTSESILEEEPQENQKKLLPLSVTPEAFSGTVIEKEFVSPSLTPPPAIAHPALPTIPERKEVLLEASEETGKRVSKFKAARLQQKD
UniProt O95292, whole entry, looked up: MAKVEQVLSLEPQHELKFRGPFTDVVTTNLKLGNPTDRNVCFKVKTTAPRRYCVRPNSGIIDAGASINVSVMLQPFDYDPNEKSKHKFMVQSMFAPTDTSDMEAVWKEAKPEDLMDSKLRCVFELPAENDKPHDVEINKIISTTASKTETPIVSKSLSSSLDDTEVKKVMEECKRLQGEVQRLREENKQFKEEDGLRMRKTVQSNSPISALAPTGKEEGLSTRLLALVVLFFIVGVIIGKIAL
UniProt Q70CQ3: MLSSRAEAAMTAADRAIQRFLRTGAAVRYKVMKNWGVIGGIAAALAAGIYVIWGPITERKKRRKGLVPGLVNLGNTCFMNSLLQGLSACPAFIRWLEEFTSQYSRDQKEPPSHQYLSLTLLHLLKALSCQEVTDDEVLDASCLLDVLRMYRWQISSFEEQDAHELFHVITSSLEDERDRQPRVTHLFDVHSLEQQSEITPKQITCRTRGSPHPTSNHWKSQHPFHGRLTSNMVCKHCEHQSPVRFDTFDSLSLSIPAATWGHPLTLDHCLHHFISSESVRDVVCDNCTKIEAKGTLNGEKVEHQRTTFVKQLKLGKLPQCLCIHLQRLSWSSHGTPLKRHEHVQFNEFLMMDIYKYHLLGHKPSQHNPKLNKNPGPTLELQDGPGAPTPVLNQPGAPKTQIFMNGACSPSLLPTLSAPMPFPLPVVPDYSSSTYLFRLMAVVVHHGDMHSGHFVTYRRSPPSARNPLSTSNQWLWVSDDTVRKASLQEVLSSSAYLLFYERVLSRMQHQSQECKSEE
UniProt P63027, whole entry, looked up: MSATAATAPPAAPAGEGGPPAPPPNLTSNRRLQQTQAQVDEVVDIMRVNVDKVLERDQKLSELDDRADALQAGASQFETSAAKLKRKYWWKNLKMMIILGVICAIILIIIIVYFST
UniProt P14927: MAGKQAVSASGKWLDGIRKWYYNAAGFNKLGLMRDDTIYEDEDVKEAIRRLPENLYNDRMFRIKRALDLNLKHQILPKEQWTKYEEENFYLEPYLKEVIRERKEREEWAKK
UniProt Q8WVY7: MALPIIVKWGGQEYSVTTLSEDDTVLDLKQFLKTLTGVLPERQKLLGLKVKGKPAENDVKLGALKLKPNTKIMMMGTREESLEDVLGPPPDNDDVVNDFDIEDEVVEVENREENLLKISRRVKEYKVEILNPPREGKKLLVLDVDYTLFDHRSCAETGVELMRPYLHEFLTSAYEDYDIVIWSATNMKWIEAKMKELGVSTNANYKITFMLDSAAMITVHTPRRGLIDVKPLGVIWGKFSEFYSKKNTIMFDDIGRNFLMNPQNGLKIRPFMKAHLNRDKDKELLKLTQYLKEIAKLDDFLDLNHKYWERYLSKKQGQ

The targets below were run with C1=CC=C(C=C1)[C@H](COC2=CC3=C(C=C2)NC(=O)N3)NC(=O)C4=CC=CN(C4=O)CC5=CC(=C(C=C5)F)F (assay: log2 fold change, soluble protein after heating vs DMSO (PISA); higher = thermal stabilisation; K562 cells, 10 uM, 30 min; active = over 0.2 and 3.5 SD of the protein, either way, in both replicates (recomputed)).
Procedure, shortened: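 K562 cells at 2×10^6 cells/mL were treated with 10 μM compound for 30 min. Aliquots were heated for 3 min across 48°C-58°C, pooled, and extracted in PBS with 0.5% NP-40 at 4°C; soluble protein was the supernatant after 21,000xg for 90 min. Soluble protein was quantified by TMTpro 16plex LC-MS/MS with channel sums equalised, and reported as log2 fold change in thermal stability against DMSO controls, with values from duplicates.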
For UBIAD1 (UniProt Q9Y5Z9), the log2 fold change was inactive: 0.012. For USP1 (UniProt O94782), the log2 fold change was inactive: -0.037. In the case of UVRAG (UniProt Q9P2Y5), the log2 fold change is reported as inactive: 0.012. For UQCRFS1 (UniProt P47985), the log2 fold change was inactive: 0.021. For UBQLN4 (UniProt Q9NRR5), the log2 fold change was inactive: 0.001. With UGP2 (UniProt C9JWG0) the log2 fold change was inactive: -0.014. For USP10 isoform 2 (UniProt Q14694), the log2 fold change was inactive: 0.023. With UTP18 (UniProt Q9Y5J1) the log2 fold change was inactive: 0.011. For UQCRC1 (UniProt P31930), the log2 fold change was inactive: 0.009. With UQCRC2 (UniProt P22695) the log2 fold change was inactive: 0.047. For UBE4B isoform 4 (UniProt O95155), the log2 fold change was inactive: -0.019. In the case of UTP4 (UniProt Q969X6), the log2 fold change is reported as inactive: 0.009. For ULK3 isoform 4 (UniProt Q6PHR2), the log2 fold change was inactive: -0.283. In the case of USP34 (UniProt Q70CQ2), the log2 fold change is reported as inactive: -0.083. UQCRH (UniProt P07919) was tested, and the log2 fold change was inactive: -0.019. For UBQLN1 (UniProt Q9UMX0), the log2 fold change was inactive: 0.01. With VAMP7 (UniProt P51809) the log2 fold change was inactive: 0.007. In the case of USP48 (UniProt Q86UV5), the log2 fold change is reported as inactive: 0. With UEVLD (UniProt Q8IX04) the log2 fold change was inactive: 0.107. UGGT1 (UniProt Q9NYU2) was tested, and the log2 fold change was inactive: 0.032. In the case of USP13 (UniProt Q92995), the log2 fold change is reported as inactive: -0.02. In the case of USP5 (UniProt P45974), the log2 fold change is reported as inactive: -0.006. In the case of UBQLN2 (UniProt Q9UHD9), the log2 fold change is reported as inactive: 0.02. For UGP2 (UniProt Q16851), the log2 fold change was inactive: 0.003. In the case of UBXN4 (UniProt Q92575), the log2 fold change is reported as inactive: -0.06. UBL5 (UniProt Q9BZL1) was tested, and the log2 fold change was inactive: -0.051. With URI1 isoform 4 (UniProt O94763) the log2 fold change was inactive: 0.195. UNC45A (UniProt Q9H3U1) was tested, and the log2 fold change was inactive: -0.069. For UBP1 (UniProt Q9NZI7), the log2 fold change was inactive: 0.063. VAPB (UniProt O95292) was tested, and the log2 fold change was inactive: 0.004. For VAPA (UniProt Q9P0L0), the log2 fold change was inactive: -0.032. UBE3C (UniProt Q15386) was tested, and the log2 fold change was inactive: 0. With USP30 (UniProt Q70CQ3) the log2 fold change was inactive: -0.222. In the case of VAMP2 (UniProt P63027), the log2 fold change is reported as inactive: 0.048. In the case of UQCRB (UniProt P14927), the log2 fold change is reported as inactive: 0.018. With USP14 (UniProt P54578) the log2 fold change was inactive: -0.031. In the case of UPF2 (UniProt Q9HAU5), the log2 fold change is reported as inactive: 0.034. With UBLCP1 (UniProt Q8WVY7) the log2 fold change was inactive: -0.066.
